The record followed here is publication PMC5507356.

The chains behind the UniProt entries cited, without tags or fusion partners.
UniProt Q8F509: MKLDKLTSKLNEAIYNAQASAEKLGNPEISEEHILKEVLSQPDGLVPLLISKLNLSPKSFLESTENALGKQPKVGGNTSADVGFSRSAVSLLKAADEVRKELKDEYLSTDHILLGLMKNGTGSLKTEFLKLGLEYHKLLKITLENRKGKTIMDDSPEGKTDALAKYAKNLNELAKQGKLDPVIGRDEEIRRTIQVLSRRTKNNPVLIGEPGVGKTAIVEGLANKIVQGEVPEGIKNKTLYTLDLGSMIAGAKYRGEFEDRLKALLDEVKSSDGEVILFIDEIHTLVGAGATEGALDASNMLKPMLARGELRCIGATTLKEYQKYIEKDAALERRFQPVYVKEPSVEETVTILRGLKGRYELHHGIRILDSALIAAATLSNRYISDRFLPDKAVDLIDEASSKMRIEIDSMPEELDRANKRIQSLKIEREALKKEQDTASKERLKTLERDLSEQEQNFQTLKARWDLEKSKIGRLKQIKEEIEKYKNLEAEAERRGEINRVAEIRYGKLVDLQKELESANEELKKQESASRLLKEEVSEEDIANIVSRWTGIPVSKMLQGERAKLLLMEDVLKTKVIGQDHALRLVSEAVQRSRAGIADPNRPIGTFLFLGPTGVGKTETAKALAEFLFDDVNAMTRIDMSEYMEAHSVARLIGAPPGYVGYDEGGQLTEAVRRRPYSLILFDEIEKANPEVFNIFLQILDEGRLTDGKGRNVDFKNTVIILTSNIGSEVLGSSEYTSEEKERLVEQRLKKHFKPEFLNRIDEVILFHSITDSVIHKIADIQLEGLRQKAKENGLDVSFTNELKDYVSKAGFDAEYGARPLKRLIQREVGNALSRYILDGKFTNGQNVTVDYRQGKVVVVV

Experiment [1] concerns the target ClpB from Leptospira interrogans (ClpBLi), recombinant (Leptospira interrogans) (UniProt Q8F509). Nature of the experiment: AUC; sedimentation velocity, 1.2 mg/ml ClpBLi with 2 mM AMP-PNP, 20°C, 50 mM Tris-HCl pH 7.5, 200 mM KCl, 20 mM MgCl2, 1 mM EDTA, 2 mM β-mercaptoethanol, 5% glycerol; both purified.
For experiment [2] the target is unchanged. Nature of the experiment: AUC; sedimentation velocity, 1.2 mg/ml ClpBLi with 2 mM ADP, 20°C, 50 mM Tris-HCl pH 7.5, 200 mM KCl, 20 mM MgCl2, 1 mM EDTA, 2 mM β-mercaptoethanol, 5% glycerol; both purified.
For experiment [3] the target is unchanged. Nature of the experiment: condition: only without nucleotide (1.2 mg/ml ClpBLi, 200 mM KCl); AUC; sedimentation velocity, 1.2 mg/ml ClpBLi without nucleotide, 20°C, 50 mM Tris-HCl pH 7.5, 200 mM KCl, 20 mM MgCl2, 1 mM EDTA, 2 mM β-mercaptoethanol, 5% glycerol; both purified.

No constants are given. Whether binding was seen depends on the method and setting. Some entries that bind do so weakly or less than the wild type.

On to “ClpB from Leptospira interrogans (ClpBLi), recombinant (from UniProt Q8F509 1-860)”, for which the binding entry in experiment [1] is “binds weakly”; in experiment [2] it was “binds”; in experiment [3] it was “no binding”.
